The results in this text go back to patent publication US20240208992A1 (Idorsia Pharmaceuticals Ltd, priority 2021, published 2024).

Series [1] in a line: peptide synthesis. Conditions: for step yield: coupling step; for cyclisation yield: cyclisation step.
A short description of series [2]: Fmoc solid-phase peptide synthesis; Wang resin; HATU/DIPEA (solution); DCC or DIC with HOBt/DMAP for resin loading. The conditions noted are these: whole synthesis, scale 0.135 mmol.

With “(3S,7S,10R,13R)-13-benzyl-10-((benzyloxy)methyl)-7-isobutyl-N-(3-methoxyphenethyl)-6,9-dimethyl-1,5,8,11-tetraoxo-1,2,3,4,5,6,7,8,9,10,11,12,13,14-tetradecahydronaphtho[1,2-p][1]oxa[4,7,10,14]tetraazacycloheptadecine-3-carboxamide”, in series [1], the step yield is listed as 80% and the cyclisation yield amounted to 82%.
In turn, “(3'S,7'S,13′R)-13′-Benzyl-N-(2-(3-cyclopropylisoxazol-5-yl)ethyl)-20′-fluoro-7′-isobutyl-6′,9′-dimethyl-1′,5′,8′,11′-tetraoxo-2′,3′,4′,5′,6′,7′,8′,9′,11′,12′,13′,14′-dodecahydro-1′H-spiro[cyclobutane-1,10′-[1]oxa[4,7,10,14]tetraazacycloheptadecino[17,16-c]quinoline]-3′-carboxamide” had a step yield in series [1] of 67%.
Still for that read-out and setting: the result for “(3S,7S,13R)-13-benzyl-7-isobutyl-6-methyl-1,5,8,11-tetraoxo-9-(((R)-tetrahydro-2H-pyran-2-yl)methyl)-1,2,3,4,5,6,7,8,9,10,11,12,13,14-tetradecahydronaphtho[1,2-p][1]oxa[4,7,10,14]tetraazacycloheptadecine-3-carboxylic acid” reads 76%.
In series [1], “(3R,9S,13S)-3-benzyl-7-(2-cyclohexylethyl)-9-(cyclopropylmethyl)-17,18-dimethoxy-10-methyl-5,8,11,15-tetraoxo-2,3,4,5,6,7,8,9,10,11,12,13,14,15-tetradecahydrobenzo[p][1]oxa[4,7,10,14]tetraazacycloheptadecine-13-carboxylic acid” displayed a step yield of 97.1% and a cyclisation yield of 13%.
The substance “(3S,7S,10R,13R)-10,13-Dibenzyl-20-fluoro-7-isobutyl-6,9-dimethyl-N-(2-(3-methylisoxazol-5-yl)ethyl)-1,5,8,11-tetraoxo-1,2,3,4,5,6,7,8,9,10,11,12,13,14-tetradecahydro-[1]oxa[4,7,10,14]tetraazacycloheptadecino[17,16-c]quinoline-3-carboxamide” had a step yield in series [1] of 56%.
In series [1], “(3S,7S,13R)—N-(2-(Benzo[d][1,3]dioxol-5-yl)ethyl)-13-benzyl-9-(((S)-chroman-3-yl)methyl)-7-isobutyl-6-methyl-1,5,8,11-tetraoxo-1,2,3,4,5,6,7,8,9,10,11,12,13,14-tetradecahydronaphtho[1,2-p][1]oxa[4,7,10,14]tetraazacycloheptadecine-3-carboxamide” gave a step yield of 84% and a cyclisation yield of 97%.
In series [2], “(7R,13S,17S)-7-Benzyl-11-(3,3-dimethylbutyl)-13-isobutyl-14-methyl-9,12,15,19-tetraoxo-6,7,8,9,10,11,12,13,14,15,16,17,18,19-tetradecahydro-[1,3]dioxolo[4′,5′:4,5]benzo[1,2-p][1]oxa[4,7,10,14]tetraazacycloheptadecine-17-carboxylic acid” yielded an isolated mass of 22 mg and an isolated yield of 26%.
